{"source": "paper PMC11955112", "binders": {"B1": {"name": "annexin A1 (ANXA1) (protein, UniProt P04083 1-346)", "chain": "MAMVSEFLKQAWFIENEEQEYVQTVKSSKGGPGSAVSPYPTFNPSSDVAALHKAIMVKGVDEATIIDILTKRNNAQRQQIKAAYLQETGKPLDETLKKALTGHLEEVVLALLKTPAQFDADELRAAMKGLGTDEDTLIEILASRTNKEIRDINRVYREELKRDLAKDITSDTSGDFRNALLSLAKGDRSEDFGVNEDLADSDARALYEAGERRKGTDVNVFNTILTTRSYPQLRRVFQKYTKYSKHDMNKVLDLELKGDIEKCLTAIVKCATSKPAFFAEKLHQAMKGVGTRHKALIRIMVSRSEIDMNDIKAFYQKMYGISLCQAILDETKGDYEKILVALCGGN"}}, "target": "Flag-tagged USP7 truncation, TRAF domain", "experiment": "co-IP; KYSE150 cells transfected with Flag-tagged USP7 truncations (TRAF, CAT, TUD); immunoprecipitation, PD-L1 or ANXA1 detected by western blot", "note": "Results are given in words; binding and its absence hold for the method and conditions named. Binding seen in cells or lysates may run through a third protein. Binding calls can cover weak binding; strength is not graded here.", "data": [{"binder": "B1", "values": [{"measurement": "binding", "result": "binds"}]}]}
